Here are results for five molecules from PMC4707158.

Amino acid sequences for entries named in this document (tags omitted).
UniProt Q9H4L4: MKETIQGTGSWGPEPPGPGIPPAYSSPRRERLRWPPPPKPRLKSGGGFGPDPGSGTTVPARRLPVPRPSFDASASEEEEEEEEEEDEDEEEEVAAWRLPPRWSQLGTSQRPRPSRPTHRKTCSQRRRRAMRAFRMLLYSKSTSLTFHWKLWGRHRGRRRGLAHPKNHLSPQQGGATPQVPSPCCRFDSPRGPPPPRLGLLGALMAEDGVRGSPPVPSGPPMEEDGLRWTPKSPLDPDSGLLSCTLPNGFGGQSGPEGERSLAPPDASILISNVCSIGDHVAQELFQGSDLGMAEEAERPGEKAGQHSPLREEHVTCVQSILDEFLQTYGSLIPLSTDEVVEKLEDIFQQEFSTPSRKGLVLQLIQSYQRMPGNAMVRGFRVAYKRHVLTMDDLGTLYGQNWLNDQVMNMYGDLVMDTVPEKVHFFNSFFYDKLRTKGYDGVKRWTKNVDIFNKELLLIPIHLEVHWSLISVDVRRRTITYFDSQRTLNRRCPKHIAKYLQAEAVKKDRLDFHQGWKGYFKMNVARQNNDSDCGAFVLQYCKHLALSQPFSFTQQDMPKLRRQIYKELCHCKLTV

These are yes or no findings as the source states them, for the method shown. In cells and extracts the contact can be indirect. These calls come from enrichment with a bait or labelling near it, and not all partners need be listed.

The target in the assay is FLAG-SENP3 (UniProt Q9H4L4). Nature of the assay: affinity purification with mass spectrometry; 293T cells transfected with vector FLAG-pcDNA or FLAG-SENP3; co-IP with anti-FLAG antibody; gel silver stained, bands of approximately 100 kDa examined by MS; Table 1 lists the hits that were also increased in lysate of SENP3-transfected cells.

B1: RRP1B (protein, UniProt Q14684 1-758)
chain: MAPAMQPAEIQFAQRLASSEKGIRDRAVKKLRQYISVKTQRETGGFSQEELLKIWKGLFYCMWVQDEPLLQEELANTIAQLVHAVNNSAAQHLFIQTFWQTMNREWKGIDRLRLDKYYMLIRLVLRQSFEVLKRNGWEESRIKVFLDVLMKEVLCPESQSPNGVRFHFIDIYLDELSKVGGKELLADQNLKFIDPFCKIAAKTKDHTLVQTIARGVFEAIVDQSPFVPEETMEEQKTKVGDGDLSAEEIPENEVSLRRAVSKKKTALGKNHSRKDGLSDERGRDDCGTFEDTGPLLQFDYKAVADRLLEMTSRKNTPHFNRKRLSKLIKKFQDLSEGSSISQLSFAEDISADEDDQILSQGKHKKKGNKLLEKTNLEKEKGSRVFCVEEEDSESSLQKRRRKKKKKHHLQPENPGPGGAAPSLEQNRGREPEASGLKALKARVAEPGAEATSSTGEESGSEHPPAVPMHNKRKRPRKKSPRAHREMLESAVLPPEDMSQSGPSGSHPQGPRGSPTGGAQLLKRKRKLGVVPVNGSGLSTPAWPPLQQEGPPTGPAEGANSHTTLPQRRRLQKKKAGPGSLELCGLPSQKTASLKKRKKMRVMSNLVEHNGVLESEAGQPQALGSSGTCSSLKKQKLRAESDFVKFDTPFLPKPLFFRRAKSSTATHPPGPAVQLNKTPSSSKKVTFGLNRNMTAEFKKTDKSILVSPTGPSRVAFDPEQKPLHGVLKTPTSSPASSPLVAKKPLTTTPRRRPRAMDFF
B1: the binding entry is reported as “binds”.

B2: MCM5 (protein, UniProt P33992 1-734)
chain: MSGFDDPGIFYSDSFGGDAQADEGQARKSQLQRRFKEFLRQYRVGTDRTGFTFKYRDELKRHYNLGEYWIEVEMEDLASFDEDLADYLYKQPAEHLQLLEEAAKEVADEVTRPRPSGEEVLQDIQVMLKSDASPSSIRSLKSDMMSHLVKIPGIIIAASAVRAKATRISIQCRSCRNTLTNIAMRPGLEGYALPRKCNTDQAGRPKCPLDPYFIMPDKCKCVDFQTLKLQELPDAVPHGEMPRHMQLYCDRYLCDKVVPGNRVTIMGIYSIKKFGLTTSRGRDRVGVGIRSSYIRVLGIQVDTDGSGRSFAGAVSPQEEEEFRRLAALPNVYEVISKSIAPSIFGGTDMKKAIACLLFGGSRKRLPDGLTRRGDINLLMLGDPGTAKSQLLKFVEKCSPIGVYTSGKGSSAAGLTASVMRDPSSRNFIMEGGAMVLADGGVVCIDEFDKMREDDRVAIHEAMEQQTISIAKAGITTTLNSRCSVLAAANSVFGRWDETKGEDNIDFMPTILSRFDMIFIVKDEHNEERDVMLAKHVITLHVSALTQTQAVEGEIDLAKLKKFIAYCRVKCGPRLSAEAAEKLKNRYIIMRSGARQHERDSDRRSSIPITVRQLEAIVRIAEALSKMKLQPFATEADVEEALRLFQVSTLDAALSGTLSGVEGFTSQEDQEMLSRIEKQLKRRFAIGSQVSEHSIIKDFTKQKYPEHAIHKVLQLMLRRGEIQHRMQRKVLYRLK
For the molecule B2, the binding entry was “binds”.

B3: LAS1L (protein, UniProt Q9Y4W2 1-734)
chain: MSWESGAGPGLGSQGMDLVWSAWYGKCVKGKGSLPLSAHGIVVAWLSRAEWDQVTVYLFCDDHKLQRYALNRITVWRSRSGNELPLAVASTADLIRCKLLDVTGGLGTDELRLLYGMALVRFVNLISERKTKFAKVPLKCLAQEVNIPDWIVDLRHELTHKKMPHINDCRRGCYFVLDWLQKTYWCRQLENSLRETWELEEFREGIEEEDQEEDKNIVVDDITEQKPEPQDDGKSTESDVKADGDSKGSEEVDSHCKKALSHKELYERARELLVSYEEEQFTVLEKFRYLPKAIKAWNNPSPRVECVLAELKGVTCENREAVLDAFLDDGFLVPTFEQLAALQIEYEDGQTEVQRGEGTDPKSHKNVDLNDVLVPKPFSQFWQPLLRGLHSQNFTQALLERMLSELPALGISGIRPTYILRWTVELIVANTKTGRNARRFSAGQWEARRGWRLFNCSASLDWPRMVESCLGSPCWASPQLLRIIFKAMGQGLPDEEQEKLLRICSIYTQSGENSLVQEGSEASPIGKSPYTLDSLYWSVKPASSSFGSEAKAQQQEEQGSVNDVKEEEKEEKEVLPDQVEEEEENDDQEEEEEDEDDEDDEEEDRMEVGPFSTGQESPTAENARLLAQKRGALQGSAWQVSSEDVRWDTFPLGRMPGQTEDPAELMLENYDTMYLLDQPVLEQRLEPSTCKTDTLGLSCGVGSGNCSNSSSSNFEGLLWSQGQLHGLKTGLQLF
In the case of B3, the binding result is on record as “binds”.

B4: ZC3H14 (protein, UniProt Q6PJT7 1-736)
chain: MEIGTEISRKIRSAIKGKLQELGAYVDEELPDYIMVMVANKKSQDQMTEDLSLFLGNNTIRFTVWLHGVLDKLRSVTTEPSSLKSSDTNIFDSNVPSNKSNFSRGDERRHEAAVPPLAIPSARPEKRDSRVSTSSQESKTTNVRQTYDDGAATRLMSTVKPLREPAPSEDVIDIKPEPDDLIDEDLNFVQENPLSQKKPTVTLTYGSSRPSIEIYRPPASRNADSGVHLNRLQFQQQQNSIHAAKQLDMQSSWVYETGRLCEPEVLNSLEETYSPFFRNNSEKMSMEDENFRKRKLPVVSSVVKVKKFNHDGEEEEEDDDYGSRTGSISSSVSVPAKPERRPSLPPSKQANKNLILKAISEAQESVTKTTNYSTVPQKQTLPVAPRTRTSQEELLAEVVQGQSRTPRISPPIKEEETKGDSVEKNQGTQQRQLLSRLQIDPVMAETLQMSQDYYDMESMVHADTRSFILKKPKLSEEVVVAPNQESGMKTADSLRVLSGHLMQTRDLVQPDKPASPKFIVTLDGVPSPPGYMSDQEEDMCFEGMKPVNQTAASNKGLRGLLHPQQLHLLSRQLEDPNGSFSNAEMSELSVAQKPEKLLERCKYWPACKNGDECAYHHPISPCKAFPNCKFAEKCLFVHPNCKYDAKCTKPDCPFTHVSRRIPVLSPKPAVAPPAPPSSSQLCRYFPACKKMECPFYHPKHCRFNTQCTRPDCTFYHPTINVPPRHALKWIRPQTSE
As to B4, the binding result is “binds”.

B5: COPG2 (protein, UniProt Q9UBF2 1-871)
chain: MIKKFDKKDEESGSGSNPFQHLEKSAVLQEARIFNETPINPRRCLHILTKILYLLNQGEHFGTTEATEAFFAMTRLFQSNDQTLRRMCYLTIKEMATISEDVIIVTSSLTKDMTGKEDVYRGPAIRALCRITDGTMLQAIERYMKQAIVDKVSSVSSSALVSSLHMMKISYDVVKRWINEAQEAASSDNIMVQYHALGVLYHLRKNDRLAVSKMLNKFTKSGLKSQFAYCMLIRIASRLLKETEDGHESPLFDFIESCLRNKHEMVIYEAASAIIHLPNCTARELAPAVSVLQLFCSSPKPALRYAAVRTLNKVAMKHPSAVTACNLDLENLITDSNRSIATLAITTLLKTGSESSVDRLMKQISSFVSEISDEFKVVVVQAISALCQKYPRKHSVMMTFLSNMLRDDGGFEYKRAIVDCIISIVEENPESKEAGLAHLCEFIEDCEHTVLATKILHLLGKEGPRTPVPSKYIRFIFNRVVLENEAVRAAAVSALAKFGAQNESLLPSILVLLQRCMMDTDDEVRDRATFYLNVLQQRQMALNATYIFNGLTVSVPGMEKALHQYTLEPSEKPFDMKSIPLAMAPVFEQKAEITLVATKPEKLAPSRQDIFQEQLAAIPEFLNIGPLFKSSEPVQLTEAETEYFVRCIKHMFTNHIVFQFDCTNTLNDQLLEKVTVQMEPSDSYEVLSCIPAPSLPYNQPGICYTLVRLPDDDPTAVAGSFSCTMKFTVRDCDPNTGVPDEDGYDDEYVLEDLEVTVSDHIQKVLKPNFAAAWEEVGDTFEKEETFALSSTKTLEEAVNNIITFLGMQPCERSDKVPENKNSHSLYLAGIFRGGYDLLVRSRLALADGVTMQVTVRSKERTPVDVILASVG
For B5, the binding result is given as “binds”.
